From PMC8281565

Target: T1, Che-1/AATF (endogenous) (human (endogenous in HCT116)) (UniProt Q9NY61)
T1 sequence: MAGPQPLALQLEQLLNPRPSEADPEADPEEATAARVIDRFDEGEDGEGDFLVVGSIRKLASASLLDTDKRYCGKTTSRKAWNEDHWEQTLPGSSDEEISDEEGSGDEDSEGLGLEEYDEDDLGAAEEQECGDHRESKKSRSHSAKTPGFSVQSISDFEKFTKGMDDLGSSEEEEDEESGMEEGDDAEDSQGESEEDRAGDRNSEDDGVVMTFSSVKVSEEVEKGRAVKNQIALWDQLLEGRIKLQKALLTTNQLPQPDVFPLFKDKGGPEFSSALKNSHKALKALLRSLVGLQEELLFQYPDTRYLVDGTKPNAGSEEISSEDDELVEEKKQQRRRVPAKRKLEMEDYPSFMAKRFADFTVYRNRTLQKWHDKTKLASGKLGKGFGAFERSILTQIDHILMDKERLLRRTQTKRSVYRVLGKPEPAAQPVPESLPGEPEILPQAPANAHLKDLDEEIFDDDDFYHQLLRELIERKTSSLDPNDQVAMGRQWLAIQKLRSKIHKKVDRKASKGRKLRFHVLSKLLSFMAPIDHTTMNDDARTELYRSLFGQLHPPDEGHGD
Test: co-IP; nuclear extracts of HCT116 cells, endogenous proteins; IP with Che-1 antibody (Fig. 5A) or with CK2 antibody (Supplementary Figure 4A); western blot

With “Casein kinase II (CK2), endogenous (human (endogenous in HCT116)) (complex)” as the substance, how does the binding read?
The binding was “binds”.

Results are given in words; binding and its absence hold for the method and conditions named. In cells and extracts the contact can be indirect. Binding can be weak; no strength is given.
